Test results taken from PMC12623955.
Results are given in words; binding and its absence hold for the method and conditions named. Binding seen in cells or lysates may run through a third protein. A yes stands for co-enrichment or nearness to the bait. Other partners may have been found.

Target: T1, Heme oxygenase 1 (HMOX1) (rat (endogenous in PC12)) (UniProt P06762)
T1 sequence: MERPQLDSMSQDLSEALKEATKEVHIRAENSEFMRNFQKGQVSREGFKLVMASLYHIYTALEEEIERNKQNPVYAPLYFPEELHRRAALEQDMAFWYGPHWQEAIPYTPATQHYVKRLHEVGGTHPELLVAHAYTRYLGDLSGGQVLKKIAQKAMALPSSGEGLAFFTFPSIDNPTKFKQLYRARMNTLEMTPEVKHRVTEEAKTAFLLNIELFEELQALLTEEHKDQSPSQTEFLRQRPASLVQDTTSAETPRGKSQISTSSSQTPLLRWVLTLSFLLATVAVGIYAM
Assay: affinity purification with mass spectrometry; IP from total protein of PC12 cells with specific antibodies and protein A/G-agarose beads, then MS of the immunoprecipitates; HMOX1 as bait

- binding: binds
Substance: BNIP3 (rat (endogenous in PC12))
